Results deposited as PubChem BioAssay AID743454 (Peter MacCallum Cancer Centre, 2014)

Assay: 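Search for knock-downs that restore vorinostat killing in resistant colon cancer cells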 (primary screen)
Cells: human HCT116-VR colon cancer cells, selected for vorinostat resistance
Knock-down reagent: siRNA pool against human genes, 40 nM siRNA pool
Time to read-out: vorinostat for 24 h, read-out about 72 h after transfection
Conditions: vorinostat at 2.5 µM final
Detection: 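Two measures, CellTiter-Fluor viability and luminescent caspase 3/7 activity, each as fold change against same-plate mock wells, mean of duplicates, then screen-wide robust z-score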
Scale: viability robust z-score: higher = more viable cells than screen typical; caspase robust z-score: higher = more caspase 3/7 activity than screen typical
Rule for the call: 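a knock-down is a hit when classed RV1 or RV2 for lowered viability, or CA1 or CA2 for caspase activation; those lethal without drug were dropped; hits were retested singly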
Shown is an unselected part of about 18,000 deposited reagents. 450 of them (2.5%) were called active. 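Single biological run; no consistent viability z cut-off exists, so the class columns, not z-scores, define the calls.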 Unmarked entries are inactive.

| Target gene | viability hit class | caspase hit class | viability robust z-score | caspase robust z-score |
| --- | --- | --- | --- | --- |
| ACSS3 | no change | no change | 0.26 | 0.24 |
| SPESP1 | no change | no change | 1.1 | 0.04 |
| ZNF620 | no change | no change | -0.37 | -0.66 |
| CACNA2D3 | no change | no change | -0.42 | 1.25 |
| H4C12 | no change | no change | 0.74 | -0.26 |
| OSBPL10 | no change | no change | -0.61 | 0.11 |
| IRAK2 | no change | no change | 0.17 | 1.02 |
| BSPRY | no change | no change | 0.26 | -0.85 |
| UNK | no change | no change | 1.06 | 0.8 |
| CCS | no change | no change | -0.3 | 1.74 |
| ARRDC1-AS1 | no change | no change | -0.58 | -0.35 |
| ERGIC3 | no change | no change | -2.1 | 1.4 |
| TLR3 | no change | no change | 1.88 | -1.01 |
| TLR4 | no change | no change | -0.88 | -0.53 |
| SH3BP1 | no change | no change | 0.49 | 0.44 |
| SAXO5 | no change | no change | -1.24 | 0.29 |
| PABPC1L2B | no change | no change | 0.87 | -0.18 |
| GNE | no change | no change | -0.83 | 1.66 |
| KCNA10 | no change | no change | -0.15 | -0.26 |
| ZGPAT | no change | no change | -1.69 | -0.52 |
| YBX2 | no change | no change | 0.99 | -0.67 |
| GLRX2 | no change | no change | 0.2 | -0.44 |
| GABRG3 | no change | no change | 0.01 | 1.12 |
| WNT7A | no change | no change | 0.03 | -0.64 |
| ABCC1 | no change | no change | 0.62 | 1.12 |
| C10orf88 | no change | no change | -0.01 | -0.62 |
| RIN3 | no change | no change | 0.14 | -0.64 |
| CRCT1 | no change | no change | -2.82 | 2.2 |
| GLI1 | no change (active) | CA2 (caspase activation) | -2.35 | 5.98 |
| MIF4GD | no change | no change | 0.88 | -0.24 |
| GTF2A2 | no change | no change | 1.12 | -0.1 |
| GDF9 | no change | no change | -0.19 | -0.97 |
| JSRP1 | no change | no change | 0.5 | -1.01 |
| MTO1 | no change | no change | -0.42 | -0.44 |
| FA2H | no change | no change | 0.5 | -0.29 |
| HSPBP1 | no change | no change | 1.32 | -0.62 |
| RWDD1 | no change | no change | 0.44 | -0.87 |
| PES1 | no change | no change | -1.82 | -0.13 |
| PDCD4 | no change | no change | -1.48 | 0.76 |
| PSMA1 | no change | no change | -3.86 | 1.68 |
| FLI1 | no change | no change | 0.73 | -0.08 |
| ADAT3 | no change | no change | 0.5 | 1.22 |
| KATNAL1 | no change | no change | -1.04 | 0.6 |
| TMEM94 | no change | no change | -0.48 | 0.5 |
| ANXA5 | no change | no change | 1.12 | -0.23 |
| XAF1 | no change | no change | 0.8 | -0.91 |
| SYNDIG1 | no change | no change | -0.65 | -0.34 |
| BPY2 | no change | no change | 0.32 | 3 |
| FOXJ3 | no change | no change | -0.29 | -0.88 |
| GABRA5 | no change | no change | -1.1 | 0.04 |
| FAM110B | no change | no change | -1.85 | -0.15 |
| GNG2 | no change | no change | 0.87 | -0.21 |
| FBXL22 | no change | no change | -0.62 | -0.26 |
| NUP160 | no change | no change | -0.45 | 4.45 |
| GAD1 | no change | no change | -0.7 | 0.29 |
| H2BC15 | no change | no change | 0.96 | 1.54 |
| DDX11 | no change | no change | -0.45 | 1.4 |
| MFAP1 | no change | no change | -3.01 | -0.7 |
| SERPINE2 | no change | no change | -1.35 | 2.71 |
| KIR2DS3 | no change | no change | -0.38 | 2.29 |
| PCMTD1 | no change | no change | -0.31 | -0.8 |
| FAM216B | no change | no change | 2.14 | -0.32 |
| IZUMO2 | no change | no change | 0.1 | 1.44 |
| CPAMD8 | no change | no change | 1.88 | 0.17 |
| LARP4B | no change | no change | -0.08 | 0.22 |
| MECR | no change | no change | -1.49 | 2.98 |
| ZNF10 | no change | no change | 1.21 | -0.32 |
| ATG13 | no change | no change | -0.07 | 0.26 |
| SLC6A15 | no change | no change | 0.86 | 1.31 |
| FTCD | no change | no change | 0.48 | -0.77 |
| MAGEB1 | no change | no change | 0.96 | 0.13 |
| FAN1 | no change | no change | 0.59 | -0.88 |
| TINAG | no change | no change | -0.12 | -1.1 |

Targets above whose gene name begins with C or c (5):
| Target gene | viability hit class | caspase hit class | viability robust z-score | caspase robust z-score |
| --- | --- | --- | --- | --- |
| CACNA2D3 | no change | no change | -0.42 | 1.25 |
| CCS | no change | no change | -0.3 | 1.74 |
| C10orf88 | no change | no change | -0.01 | -0.62 |
| CRCT1 | no change | no change | -2.82 | 2.2 |
| CPAMD8 | no change | no change | 1.88 | 0.17 |
